Literature values as cited in patent US20020151526A1, “Bile-acid prodrugs of L-dopa and their use in the sustained treatment of parkinsonism” (priority 2000, published 2002).

Conditions: patients; administered alone; cited from earlier work

## N[C@@H](Cc1ccc(O)c(O)c1)C(=O)O [levodopa, L-dihydroxyphenylalanine]
  half-life in plasma: about 50 minutes
